Measurements taken from paper PMC12526889.
Results are given in words; binding and its absence hold for the method and conditions named. For part of these data: Binding calls can cover weak binding; strength is not graded here. For part of these data: Sequences can lack the tags named with a protein. For part of these data: In cells and extracts the contact can be indirect.

Sequences of proteins named here, by UniProt entry; tags and fusion partners are left off. A change or cut given only in a name is not applied to a line headed by its entry.
UniProt F4JHD1: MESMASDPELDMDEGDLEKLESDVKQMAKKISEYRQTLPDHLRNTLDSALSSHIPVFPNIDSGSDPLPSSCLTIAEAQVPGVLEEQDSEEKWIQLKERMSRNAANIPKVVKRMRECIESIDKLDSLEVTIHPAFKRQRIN
UniProt F4JT58: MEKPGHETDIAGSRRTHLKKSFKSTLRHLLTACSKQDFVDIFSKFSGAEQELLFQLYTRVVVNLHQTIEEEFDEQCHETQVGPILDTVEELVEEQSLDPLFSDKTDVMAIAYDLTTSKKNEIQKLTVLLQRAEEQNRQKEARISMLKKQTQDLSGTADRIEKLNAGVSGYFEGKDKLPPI
UniProt F4IWJ9: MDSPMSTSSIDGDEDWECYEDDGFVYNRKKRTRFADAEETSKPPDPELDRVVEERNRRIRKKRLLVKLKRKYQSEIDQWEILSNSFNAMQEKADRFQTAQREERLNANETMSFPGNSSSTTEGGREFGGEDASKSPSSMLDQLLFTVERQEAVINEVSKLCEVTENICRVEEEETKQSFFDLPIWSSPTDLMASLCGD
UniProt F4IVI0: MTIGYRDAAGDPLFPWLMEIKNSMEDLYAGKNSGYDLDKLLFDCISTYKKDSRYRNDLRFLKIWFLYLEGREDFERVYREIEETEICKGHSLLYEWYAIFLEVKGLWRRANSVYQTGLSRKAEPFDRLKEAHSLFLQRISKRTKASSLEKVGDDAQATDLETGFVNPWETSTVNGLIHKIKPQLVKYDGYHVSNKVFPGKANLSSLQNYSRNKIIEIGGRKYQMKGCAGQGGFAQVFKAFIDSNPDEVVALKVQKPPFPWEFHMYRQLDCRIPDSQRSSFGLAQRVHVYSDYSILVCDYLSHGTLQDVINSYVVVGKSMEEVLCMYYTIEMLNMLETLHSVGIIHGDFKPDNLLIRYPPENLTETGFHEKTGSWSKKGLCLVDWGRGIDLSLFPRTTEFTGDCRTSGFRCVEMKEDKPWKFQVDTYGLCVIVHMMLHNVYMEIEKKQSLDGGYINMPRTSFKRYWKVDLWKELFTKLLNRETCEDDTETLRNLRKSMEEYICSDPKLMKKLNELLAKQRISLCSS

How the values were obtained:
[1] = biological target: T1, MIS12 (Arabidopsis), two-hybrid fusion (Arabidopsis thaliana) (UniProt Q2V0Z5); experiment: two-hybrid; GAL4 DNA-BD (pGBT9-GW) and AD (pGAD424-GW) fusions in yeast AH109; growth on -TLH (moderately selective) and -TLHA (severely selective) media, 30 °C, 3 days; BD constructs of CENP-C, SPC24.1, DSN1 and ZWINT1.1 self-activated
T1 sequence: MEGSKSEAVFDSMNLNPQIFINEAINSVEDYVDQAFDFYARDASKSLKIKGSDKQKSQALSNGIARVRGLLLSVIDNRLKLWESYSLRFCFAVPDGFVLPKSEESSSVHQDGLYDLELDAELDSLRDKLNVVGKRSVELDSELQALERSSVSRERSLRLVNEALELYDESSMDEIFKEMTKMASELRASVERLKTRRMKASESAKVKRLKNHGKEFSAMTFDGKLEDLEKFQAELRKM

[2] = biological target: T2, Yn:CENP-C (BiFC fusion) (Arabidopsis thaliana) (UniProt Q66LG9); experiment: split reporter; BiFC: fusions to the N-terminal and C-terminal fragments of YFP coinfiltrated with p19 into N. benthamiana leaves; confocal imaging 3 days after inoculation
T2 sequence: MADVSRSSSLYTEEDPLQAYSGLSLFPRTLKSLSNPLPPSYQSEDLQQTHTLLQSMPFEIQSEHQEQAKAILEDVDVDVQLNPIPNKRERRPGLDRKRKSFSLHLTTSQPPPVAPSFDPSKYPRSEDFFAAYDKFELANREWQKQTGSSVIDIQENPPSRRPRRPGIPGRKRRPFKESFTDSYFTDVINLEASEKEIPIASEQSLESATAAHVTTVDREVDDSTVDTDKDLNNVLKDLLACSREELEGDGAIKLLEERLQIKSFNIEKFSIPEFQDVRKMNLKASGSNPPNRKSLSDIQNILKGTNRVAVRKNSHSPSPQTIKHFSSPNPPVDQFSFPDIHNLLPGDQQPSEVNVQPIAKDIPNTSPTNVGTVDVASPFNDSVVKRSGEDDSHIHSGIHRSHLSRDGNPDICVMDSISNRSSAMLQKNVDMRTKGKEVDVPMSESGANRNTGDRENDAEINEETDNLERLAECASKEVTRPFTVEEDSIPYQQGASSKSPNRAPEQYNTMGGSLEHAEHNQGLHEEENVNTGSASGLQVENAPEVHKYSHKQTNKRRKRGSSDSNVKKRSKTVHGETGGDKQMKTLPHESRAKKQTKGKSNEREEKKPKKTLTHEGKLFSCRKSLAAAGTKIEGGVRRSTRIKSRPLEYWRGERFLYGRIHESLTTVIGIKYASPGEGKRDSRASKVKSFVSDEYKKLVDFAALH

[3] = biological target: NSL1.1 (Arabidopsis), two-hybrid fusion (Arabidopsis thaliana) (UniProt F4JHD1); experiment: two-hybrid; GAL4 DNA-BD (pGBT9-GW) and AD (pGAD424-GW) fusions in yeast AH109; growth on -TLH (moderately selective) and -TLHA (severely selective) media, 30 °C, 3 days; BD constructs of CENP-C, SPC24.1, DSN1 and ZWINT1.1 self-activated
[4] = biological target: T3, Centromere protein C (CENP-C, Arabidopsis), two-hybrid fusion (Arabidopsis thaliana) (UniProt Q66LG9); experiment: as above
T3 sequence: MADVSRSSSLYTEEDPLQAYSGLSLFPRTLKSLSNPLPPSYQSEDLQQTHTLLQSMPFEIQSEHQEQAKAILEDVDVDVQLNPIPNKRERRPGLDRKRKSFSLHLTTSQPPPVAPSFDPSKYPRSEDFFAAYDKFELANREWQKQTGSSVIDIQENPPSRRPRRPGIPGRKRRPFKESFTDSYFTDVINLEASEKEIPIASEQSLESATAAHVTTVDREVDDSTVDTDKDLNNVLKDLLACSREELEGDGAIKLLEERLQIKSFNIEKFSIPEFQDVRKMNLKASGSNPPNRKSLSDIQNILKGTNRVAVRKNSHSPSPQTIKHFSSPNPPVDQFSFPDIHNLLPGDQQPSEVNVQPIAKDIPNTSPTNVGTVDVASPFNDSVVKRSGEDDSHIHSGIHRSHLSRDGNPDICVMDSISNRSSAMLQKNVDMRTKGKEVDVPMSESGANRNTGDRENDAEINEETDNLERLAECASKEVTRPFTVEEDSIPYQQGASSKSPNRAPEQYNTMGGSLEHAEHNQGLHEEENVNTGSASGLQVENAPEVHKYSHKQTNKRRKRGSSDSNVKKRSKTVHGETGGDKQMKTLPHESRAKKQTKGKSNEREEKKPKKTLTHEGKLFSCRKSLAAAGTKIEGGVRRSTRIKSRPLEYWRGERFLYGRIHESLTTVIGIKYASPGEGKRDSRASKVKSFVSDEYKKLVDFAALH

[5] = biological target: KNL1 (Arabidopsis), two-hybrid fusion (Arabidopsis thaliana); experiment: as above
[6] = biological target: KNL1 region spanning amino acids 350 to 450, two-hybrid fusion (Arabidopsis thaliana); experiment: as above
[7] = biological target: KNL1 fragment: ESD containing region, two-hybrid fusion (Arabidopsis thaliana); experiment: as above
[8] = biological target: KNL1 fragment: coiled-coil (CC) domain, two-hybrid fusion (Arabidopsis thaliana); experiment: as above
[9] = biological target: KNL1 (BiFC fusion) (Arabidopsis thaliana); experiment: split reporter; BiFC: fusions to the N-terminal and C-terminal fragments of YFP coinfiltrated with p19 into N. benthamiana leaves; confocal imaging 3 days after inoculation

NNF1 (Arabidopsis), two-hybrid fusion (from UniProt F4JT58)
binding [1]: binds

NNF1 fused to Yc (BiFC fusion) (Arabidopsis thaliana)
binding [2]: no binding

DSN1 (Arabidopsis), two-hybrid fusion (from UniProt F4IWJ9)
binding [3]: binds

BMF1 (Arabidopsis), two-hybrid fusion (from UniProt F4IVI0)
binding [4]: binds

B1: MPS1 (Arabidopsis), two-hybrid fusion (enzyme, UniProt Q84VX4 1-777)
chain: MDREDNLPVQPDKPPKSLVRPILNLETTSSSSSSSSSSPELLRHLQAAFKRHRPLSKMQTTSIGPRRSVAPQRQASRNTRLVTAEGQRSQDVVTLSQSLAANTLTQDTTNNLAITSVAGESASITQPTVSEHFNPSDRQMDFGKSAVTSLESNLDVQRKSQSLIGTSQDMEWDATNQAEASHLDACIGSKHQNLPSVDSEVSLKSEYKDSSSLAKIQGQLGEFPNFLNQPRTRCSAVGSSWATTTLIHSSSAPMLNATTHVSRSYVEADSNANPHAVQSQGNLPSCCPSSKVSNILHPNKDATASEMPASTNDPEVRVKETDTSKQQQITTGLEAPVGSSIYGSDGQANARLPEELHTSVSSQPQKSDKHEKVASSKGPSAPRKRNYDPDLFFKVNGKLYQRLGKIGSGGSSEVHKVISSDCTIYALKKIKLKGRDYATAYGFCQEIGYLKKLKGKTNIIQLIDYEVTDKTLLQEVLNGTMSNKDGRVKEDGFIYMVLEYGEIDLAHMLSQKWREIEGSDRTIDENWLRFYWQQILQAVNTIHEERIVHSDLKPANFLLVRGFLKLIDFGIAKAINSDTTNIQRDSQVGTLSYMSPEAFMCNESDENGNTIKCGRPSDIWSLGCILYQMVYGRTPFADYKTFWAKFKVITDPNHEITYNQLSNPWLIDLMKKCLAWDRNQRWRIPELLQHPFLAPPIPHEPQVKTIKLFSLIAESCGSDDDKANSMISQLEQLLSNPAPLPRNDVLDSRDQNQQLLSRVSELCIQLQDRLQGLEGEN
binding [5]: binds | binding [6]: binds

B2: MAD1 (Arabidopsis), two-hybrid fusion (protein, UniProt Q9LTY1 1-726)
chain: MILRTPQPKRLRSDAGESPFPTGATGSGNQLIIYEDSPLPAPAPLQTSHDHSADQHLCTYQCRQMVKADVLDALSTAEKQVEESKTKLQTLNANFTEADAERKHFRDKFLYSEQELAAAKAREKMLQEQLLMEINNSQERYTKELQSCHELEVKLQNEMNLRKKAESSAATAEEKAKLLEDKLTQLSGSVDREKKRLNNDIAQLGKEAKLSVARIGADLERMQCRAQNAETESNLLRSQLEHLKLIFDECLQEKTEVDKKLSSFTSEAASSSDNSVLVKHLQEELKRYEAEVREARKLKSRHLDAELLNVNLLEEQSRRERAESELSKFHDLQLSMEKLENELSSWKSLLNDIPGVSCPDDIVMRFSVLQNEVVQSTMKIGEASTRIKQLEETLEAIQLGRQNAVSEAALAKEKSEALKTDVKRIEVMLTLVTEEKEQLKAVVNELRKSNSEGSVSGAADGALIQGFESSLAKKENYIKDLEQDLNQLKDVNNRQRTEIELLNEKLVDEARRNKSLERDSDRLRSEISLLESKLGHGDYSAANTRVLRMVNTLGVENEAKQTIEALQAELQKTKERLQAVEELKSQSGDAGKLVDSHITGKIAQLKEQNATLEKREERYKTVFADRISVFRRACCELFGYKIVMDEHQRPNGIPVTRFTLQSIYAQSDDEKLEFEYESGNTSILNNEYASQGDIAKQIEIFIRKFNSIPAFTANLTMESFNRRTLY
binding [7]: binds | binding [5]: binds

B3: NUF2 (Arabidopsis), two-hybrid fusion (protein, UniProt Q8RXJ0 1-440)
chain: MSAYEYPRLSRSDIITALKDAQIASVTETDLKTPTSDFVSELYTRILIYLDALDEEEKGQVDFEALEQLENPDHHATSMQAMKLYCKVKDMLEMLDCPLPISFKDLLRPESSRTEFFISALLNYGLYKDSKMDLIRPKAEELGLLDEQRKQCEAKVAQLNAEIGEFDEAVERDLPFVQELEANIEQLNKKILELNNQQMSLRATFQKMREKSTQMDNEISKAEFDLVETVQENANLRSQIVQSPDKLQGALEEKKLVLGETKKAEQSAMVTFQEKAAILEVFEKALKKILKSSSQLQLINEQVTNAKTVEKEFKALKDKLSEDGVAYKSLEAKVVERERIVEQLNESLKQLEKEKAVMFDDWTKQLNELKVEVESRRRELETRQTNVESVVAMVDDNTAKTNQVRQSGEAKVKKLAAKYEEIVKQFHEYTVSFDAFLPSL
binding [7]: binds | binding [5]: binds | binding [8]: binds

B4: MIS12 (Arabidopsis), two-hybrid fusion (protein, UniProt Q2V0Z5 1-238)
chain: MEGSKSEAVFDSMNLNPQIFINEAINSVEDYVDQAFDFYARDASKSLKIKGSDKQKSQALSNGIARVRGLLLSVIDNRLKLWESYSLRFCFAVPDGFVLPKSEESSSVHQDGLYDLELDAELDSLRDKLNVVGKRSVELDSELQALERSSVSRERSLRLVNEALELYDESSMDEIFKEMTKMASELRASVERLKTRRMKASESAKVKRLKNHGKEFSAMTFDGKLEDLEKFQAELRKM
binding [7]: binds | binding [5]: binds | binding [8]: binds

B5: MPS1 (BiFC fusion) (enzyme, UniProt Q84VX4 1-777)
chain: MDREDNLPVQPDKPPKSLVRPILNLETTSSSSSSSSSSPELLRHLQAAFKRHRPLSKMQTTSIGPRRSVAPQRQASRNTRLVTAEGQRSQDVVTLSQSLAANTLTQDTTNNLAITSVAGESASITQPTVSEHFNPSDRQMDFGKSAVTSLESNLDVQRKSQSLIGTSQDMEWDATNQAEASHLDACIGSKHQNLPSVDSEVSLKSEYKDSSSLAKIQGQLGEFPNFLNQPRTRCSAVGSSWATTTLIHSSSAPMLNATTHVSRSYVEADSNANPHAVQSQGNLPSCCPSSKVSNILHPNKDATASEMPASTNDPEVRVKETDTSKQQQITTGLEAPVGSSIYGSDGQANARLPEELHTSVSSQPQKSDKHEKVASSKGPSAPRKRNYDPDLFFKVNGKLYQRLGKIGSGGSSEVHKVISSDCTIYALKKIKLKGRDYATAYGFCQEIGYLKKLKGKTNIIQLIDYEVTDKTLLQEVLNGTMSNKDGRVKEDGFIYMVLEYGEIDLAHMLSQKWREIEGSDRTIDENWLRFYWQQILQAVNTIHEERIVHSDLKPANFLLVRGFLKLIDFGIAKAINSDTTNIQRDSQVGTLSYMSPEAFMCNESDENGNTIKCGRPSDIWSLGCILYQMVYGRTPFADYKTFWAKFKVITDPNHEITYNQLSNPWLIDLMKKCLAWDRNQRWRIPELLQHPFLAPPIPHEPQVKTIKLFSLIAESCGSDDDKANSMISQLEQLLSNPAPLPRNDVLDSRDQNQQLLSRVSELCIQLQDRLQGLEGEN
binding [9]: no binding
